We go through one molecule from US20230057461A1 (US Dept. of Health and Human Services, published 2023).

Sequences of proteins named here, by UniProt entry; tags and fusion partners are left off. A change or cut given only in a name is not applied to a line headed by its entry. A line that says so, or that is headed by a name, gives the form on record, which may keep a tag or linker.
UniProt P61586: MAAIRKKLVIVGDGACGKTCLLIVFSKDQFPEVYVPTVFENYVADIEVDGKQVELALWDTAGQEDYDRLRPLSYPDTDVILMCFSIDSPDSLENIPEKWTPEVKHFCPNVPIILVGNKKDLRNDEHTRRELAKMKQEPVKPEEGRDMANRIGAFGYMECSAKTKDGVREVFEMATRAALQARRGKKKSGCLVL
nucleotide-free RhoA mutant that exhibits high affinity for GEFs (P61586, form named): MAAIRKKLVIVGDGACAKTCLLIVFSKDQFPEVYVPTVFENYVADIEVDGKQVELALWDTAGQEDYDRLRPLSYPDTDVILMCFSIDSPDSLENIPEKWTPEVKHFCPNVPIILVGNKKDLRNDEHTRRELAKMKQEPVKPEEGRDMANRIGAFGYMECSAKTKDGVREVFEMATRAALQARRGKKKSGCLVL

This assay addresses nucleotide-free RhoA mutant that exhibits high affinity for GEFs (UniProt P61586). The experiment in a line: pull-down of active NET1 from lysates of PMO-treated MDA-MB-231 cells.

No constants are given. Whether binding was seen depends on the method and setting. In cells and extracts the contact can be indirect. Some results given as binding are weak or reduced against the parent protein; the word gives no strength.

B1: NET1 protein (endogenous, MDA-MB-231 cells) (enzyme, human, UniProt Q7Z628 1-596, looked up)
chain: MEPELAAQKQPRPRRRSRRASGLSTEGATGPSADTSGSELDGRCSLRRGSSFTFLTPGPNWDFTLKRKRREKDDDVVSLSSLDLKEPSNKRVRPLARVTSLANLISPVRNGAVRRFGQTIQSFTLRGDHRSPASAQKFSSRSTVPTPAKRRSSALWSEMLDITMKESLTTREIRRQEAIYEMSRGEQDLIEDLKLARKAYHDPMLKLSIMSEEELTHIFGDLDSYIPLHEDLLTRIGEATKPDGTVEQIGHILVSWLPRLNAYRGYCSNQLAAKALLDQKKQDPRVQDFLQRCLESPFSRKLDLWSFLDIPRSRLVKYPLLLKEILKHTPKEHPDVQLLEDAILIIQGVLSDINLKKGESECQYYIDKLEYLDEKQRDPRIEASKVLLCHGELRSKSGHKLYIFLFQDILVLTRPVTRNERHSYQVYRQPIPVQELVLEDLQDGDVRMGGSFRGAFSNSEKAKNIFRIRFHDPSPAQSHTLQANDVFHKQQWFNCIRAAIAPFQSAGSPPELQGLPELHEECEGNHPSARKLTAQRRASTVSSVTQVEVDENAYRCGSGMQMAEDSKSLKTHQTQPGIRRARDKALSGGKRKETLV
For the molecule B1, the binding result is “binds”.
